Data on 13 compounds can be found in the supplement of paper PMC9578143, “Small-Molecule Ebselen Binds to YTHDF Proteins Interfering with the Recognition of N^6-Methyladenosine-Modified RNAs” (ACS Pharmacology & Translational Science, 2022).

The other results are listed elsewhere or left out. Plates or batches differ in their baseline, so values are only roughly comparable.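 Hits were defined as a z-score below −3.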

The experiment has as its target T1, YTHDF1 YTH domain (aa 365-554) (UniProt Q9BYJ9).
T1 sequence (whole entry): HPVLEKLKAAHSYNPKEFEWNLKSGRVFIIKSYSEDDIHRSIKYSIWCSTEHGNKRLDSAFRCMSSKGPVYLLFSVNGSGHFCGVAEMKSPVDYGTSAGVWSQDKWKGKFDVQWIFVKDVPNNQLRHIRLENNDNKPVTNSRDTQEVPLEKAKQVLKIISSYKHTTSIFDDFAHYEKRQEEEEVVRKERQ
In words: tryptophan fluorescence intensity z-score (mean); higher = higher fluorescence, less quenching (negative = binding / quenching). The conditions noted are these: 10 µM.
In the case of `CO[C@H]1[C@H](O)[C@H](O[C@H]2CC[C@@]3(C=O)[C@H](CC[C@@H]4[C@@H]3CC[C@]3(C)[C@@H](C5=CC(=O)OC5)CC[C@]43O)C2)O[C@@H](C)[C@@H]1O` (plate: M 21-22), the “tryptophan fluorescence intensity z-score” value was inactive: 0.104.

Turning to `CC(=O)O[C@@H]1[C@H]2CC[C@H]3[C@@](C)(O)[C@@H]4C[C@H](O)C(C)(C)[C@@]4(O)[C@H](O)C[C@@]13C[C@@]2(C)O` (plate: M 15-16), the “tryptophan fluorescence intensity z-score” value is inactive: 0.57.

Consider `CC[C@@H](C(=O)[C@@H](C)[C@@H](O)[C@H](C)[C@@H]1O[C@@H]([C@@H](CC)C(=O)O)CC[C@@H]1C)[C@H]1O[C@]2(C=C[C@@H](O)[C@]3(CC[C@@](C)([C@H]4CC[C@](O)(CC)[C@H](C)O4)O3)O2)[C@H](C)C[C@@H]1C` (plate: M 19-20), for which the “tryptophan fluorescence intensity z-score” value was inactive: 0.794.

With `CN[C@@H](C)[C@@H](O)c1ccccc1` (plate: M 5-6), the “tryptophan fluorescence intensity z-score” value is inactive: 0.0171.

On to `CN1[C@@H]2C[C@@H](OC(=O)[C@H](CO)c3ccccc3)C[C@H]1[C@@H]1O[C@@H]12` (plate: M 5-6), for which the “tryptophan fluorescence intensity z-score” value is inactive: -0.0455.

For `C[C@@H]1O[C@@H](O[C@H]2CC[C@]3(C=O)[C@H]4CC[C@]5(C)[C@@H](C6=CC(=O)OC6)CC[C@]5(O)[C@@H]4CC[C@]3(O)C2)[C@H](O)[C@H](O)[C@H]1O` (plate: M 19-20), the “tryptophan fluorescence intensity z-score” value is inactive: 0.627.

Regarding `CC1(C)C2CC(=O)[C@]3(C)C(CC[C@@]4(C)[C@H](c5ccoc5)OC(=O)C5OC543)[C@@]2(C)[C@@H](O)C[C@H]1O` (stereo partly drawn) (plate: M 13-14), the “tryptophan fluorescence intensity z-score” value was inactive: -0.0247.

As to `C[C@H]1O[C@H](OC2[C@@H](O)[C@@H](O)C(O)[C@H](O)[C@H]2O)[C@@H](N)C[C@@H]1N=C(N)C(=O)O` (stereo partly drawn) (plate: M 19-20), the “tryptophan fluorescence intensity z-score” value is inactive: 0.146.

For the compound `COC1=C[C@@H]2[C@@H]3Cc4ccc(OC)c(O)c4[C@]2(CCN3C)CC1=O` (plate: M 19-20), the “tryptophan fluorescence intensity z-score” value is inactive: 0.62.

Regarding `CCOC(=O)C1C(C=C(C)C)C1(C)C` (stereo not drawn) (plate: M 17-18), the “tryptophan fluorescence intensity z-score” value is inactive: 0.501.

Take `O=C1C=CC(=O)c2ccccc21` (plate: M 23-24): the “tryptophan fluorescence intensity z-score” value is inactive: -2.03.

For `CCC(C)C(=O)O[C@@H]1C[C@@]2(C)[C@H](c3ccoc3)OC(=O)CC23OC2(C)O[C@]14[C@]1(C)[C@@H](CC(=O)OC)C5(C)CC1(O)[C@](O)(C5OC(=O)C1(C)OC1C)[C@@H](OC(C)=O)[C@]34O2` (stereo partly drawn) (plate: M 13-14), the “tryptophan fluorescence intensity z-score” value was inactive: 0.882.

For `CN1C[C@H](C(=O)N[C@]2(C)O[C@@]3(O)[C@@H]4CCCN4C(=O)[C@H](Cc4ccccc4)N3C2=O)C=C2c3cccc4[nH]cc(c34)C[C@H]21` (plate: M 11-12), the “tryptophan fluorescence intensity z-score” value is inactive: -0.785.
